The other results are listed elsewhere or left out.
Columns and labels:
Test in all cases: log2 fold change, soluble protein after heating vs DMSO (PISA); higher = thermal stabilisation; K562 cells, 10 uM, 30 min; active = over 0.2 and 3.5 SD of the protein, either way, in both replicates (recomputed)
saracatinib = compound: CN1CCN(CCOc2cc(OC3CCOCC3)c3c(Nc4c(Cl)ccc5c4OCO5)ncnc3c2)CC1 [saracatinib]
How it was run: (§1)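 K562 cells at 2×10^6 cells/mL were treated with 10 μM compound for 30 min. Aliquots were heated for 3 min across 48°C-58°C, pooled, and extracted in PBS with 0.5% NP-40 at 4°C; soluble protein was the supernatant after 21,000xg for 90 min. Soluble protein was quantified by TMTpro 16plex LC-MS/MS with channel sums equalised, and reported as log2 fold change in thermal stability against DMSO controls, with values from duplicates.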

By UniProt entry, the sequences of proteins in these tests, tags left out. Where a name states a change or a piece, a line headed by the entry shows the natural chain unless it says otherwise.
UniProt Q92922, whole entry, looked up: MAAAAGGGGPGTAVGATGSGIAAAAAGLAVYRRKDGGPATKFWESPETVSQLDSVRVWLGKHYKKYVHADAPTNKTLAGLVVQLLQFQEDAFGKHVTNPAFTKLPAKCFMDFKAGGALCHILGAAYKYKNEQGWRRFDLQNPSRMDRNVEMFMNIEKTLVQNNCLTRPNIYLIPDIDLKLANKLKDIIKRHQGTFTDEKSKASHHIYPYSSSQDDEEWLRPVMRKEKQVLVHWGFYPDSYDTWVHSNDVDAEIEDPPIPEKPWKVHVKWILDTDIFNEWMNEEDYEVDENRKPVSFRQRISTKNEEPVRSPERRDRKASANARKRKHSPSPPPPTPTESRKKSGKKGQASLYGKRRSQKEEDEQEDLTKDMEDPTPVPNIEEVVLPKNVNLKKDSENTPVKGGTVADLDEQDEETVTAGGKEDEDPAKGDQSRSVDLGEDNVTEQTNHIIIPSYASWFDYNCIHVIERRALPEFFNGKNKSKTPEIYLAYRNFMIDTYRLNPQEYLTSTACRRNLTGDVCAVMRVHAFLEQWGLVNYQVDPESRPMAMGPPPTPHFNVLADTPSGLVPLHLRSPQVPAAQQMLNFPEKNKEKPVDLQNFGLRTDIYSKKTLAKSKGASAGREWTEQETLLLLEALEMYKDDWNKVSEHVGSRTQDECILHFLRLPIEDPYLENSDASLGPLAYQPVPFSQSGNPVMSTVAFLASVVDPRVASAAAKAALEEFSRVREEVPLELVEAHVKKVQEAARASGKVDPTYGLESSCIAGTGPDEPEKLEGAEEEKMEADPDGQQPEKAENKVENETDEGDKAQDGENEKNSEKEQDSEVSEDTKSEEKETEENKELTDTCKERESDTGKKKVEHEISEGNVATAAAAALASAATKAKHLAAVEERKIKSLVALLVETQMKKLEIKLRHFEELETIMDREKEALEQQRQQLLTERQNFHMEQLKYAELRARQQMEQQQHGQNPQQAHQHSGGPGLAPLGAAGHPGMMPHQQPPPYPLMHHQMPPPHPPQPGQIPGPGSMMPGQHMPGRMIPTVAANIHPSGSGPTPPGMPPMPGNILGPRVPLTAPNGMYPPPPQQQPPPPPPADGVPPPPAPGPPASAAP
UniProt Q96SB8: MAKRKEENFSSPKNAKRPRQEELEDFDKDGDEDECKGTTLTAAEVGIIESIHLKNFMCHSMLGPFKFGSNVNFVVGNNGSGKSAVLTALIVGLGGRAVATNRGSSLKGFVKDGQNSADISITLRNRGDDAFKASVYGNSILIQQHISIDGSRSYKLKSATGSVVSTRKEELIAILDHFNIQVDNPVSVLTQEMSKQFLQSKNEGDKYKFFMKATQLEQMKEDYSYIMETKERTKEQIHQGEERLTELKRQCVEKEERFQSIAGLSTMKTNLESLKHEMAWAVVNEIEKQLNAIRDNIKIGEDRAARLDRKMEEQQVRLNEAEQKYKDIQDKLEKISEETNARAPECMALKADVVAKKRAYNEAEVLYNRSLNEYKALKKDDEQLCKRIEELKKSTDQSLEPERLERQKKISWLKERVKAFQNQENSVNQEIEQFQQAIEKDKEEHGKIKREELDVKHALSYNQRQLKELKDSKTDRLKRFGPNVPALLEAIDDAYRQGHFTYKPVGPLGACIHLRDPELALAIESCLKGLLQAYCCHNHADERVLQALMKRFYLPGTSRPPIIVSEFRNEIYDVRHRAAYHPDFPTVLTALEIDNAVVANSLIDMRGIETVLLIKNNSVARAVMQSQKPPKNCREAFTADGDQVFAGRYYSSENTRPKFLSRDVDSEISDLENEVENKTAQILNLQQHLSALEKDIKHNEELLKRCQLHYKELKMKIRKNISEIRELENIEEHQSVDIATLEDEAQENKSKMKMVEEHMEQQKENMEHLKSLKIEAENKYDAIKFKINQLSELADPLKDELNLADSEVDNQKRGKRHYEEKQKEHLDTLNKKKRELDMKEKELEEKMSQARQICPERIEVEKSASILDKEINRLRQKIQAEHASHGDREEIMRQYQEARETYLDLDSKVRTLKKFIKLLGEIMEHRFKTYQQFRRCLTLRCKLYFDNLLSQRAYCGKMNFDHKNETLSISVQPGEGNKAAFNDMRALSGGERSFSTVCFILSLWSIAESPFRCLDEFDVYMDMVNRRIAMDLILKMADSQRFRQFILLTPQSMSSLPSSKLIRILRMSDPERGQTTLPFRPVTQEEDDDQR
UniProt Q8IYB5: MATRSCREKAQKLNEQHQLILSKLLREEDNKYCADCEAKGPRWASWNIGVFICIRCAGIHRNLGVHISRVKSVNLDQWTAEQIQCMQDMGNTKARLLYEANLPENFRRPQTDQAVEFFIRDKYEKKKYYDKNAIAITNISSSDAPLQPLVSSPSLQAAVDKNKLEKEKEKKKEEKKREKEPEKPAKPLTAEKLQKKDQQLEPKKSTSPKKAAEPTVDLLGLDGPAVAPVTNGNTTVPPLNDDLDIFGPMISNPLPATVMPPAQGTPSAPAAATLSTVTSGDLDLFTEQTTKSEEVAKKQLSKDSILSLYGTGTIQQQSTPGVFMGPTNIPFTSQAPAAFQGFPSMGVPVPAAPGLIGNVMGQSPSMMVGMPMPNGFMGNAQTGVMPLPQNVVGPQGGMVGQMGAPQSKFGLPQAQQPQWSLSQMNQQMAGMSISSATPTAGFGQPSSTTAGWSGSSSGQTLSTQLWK
UniProt P62304, whole entry, looked up: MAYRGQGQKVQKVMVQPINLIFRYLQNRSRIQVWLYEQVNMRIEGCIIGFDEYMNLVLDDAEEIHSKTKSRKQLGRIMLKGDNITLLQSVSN
UniProt P09012, whole entry, looked up: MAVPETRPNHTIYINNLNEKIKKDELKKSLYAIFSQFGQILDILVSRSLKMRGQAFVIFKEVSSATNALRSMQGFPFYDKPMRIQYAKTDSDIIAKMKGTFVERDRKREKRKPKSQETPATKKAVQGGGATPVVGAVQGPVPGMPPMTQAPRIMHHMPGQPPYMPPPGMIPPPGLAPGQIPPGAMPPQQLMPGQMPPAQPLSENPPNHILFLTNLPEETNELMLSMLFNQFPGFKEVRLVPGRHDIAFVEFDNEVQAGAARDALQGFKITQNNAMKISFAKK
UniProt P52788: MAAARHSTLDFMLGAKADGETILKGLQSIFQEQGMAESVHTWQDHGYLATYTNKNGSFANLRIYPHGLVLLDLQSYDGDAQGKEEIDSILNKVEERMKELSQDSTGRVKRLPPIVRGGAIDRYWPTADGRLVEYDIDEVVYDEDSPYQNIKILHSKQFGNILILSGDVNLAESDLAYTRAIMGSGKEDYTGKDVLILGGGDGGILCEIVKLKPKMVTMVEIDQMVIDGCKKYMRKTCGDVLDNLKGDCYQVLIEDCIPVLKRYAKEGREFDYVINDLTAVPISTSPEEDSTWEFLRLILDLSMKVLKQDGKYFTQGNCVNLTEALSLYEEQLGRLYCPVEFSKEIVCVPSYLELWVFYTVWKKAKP
UniProt Q9UQE7: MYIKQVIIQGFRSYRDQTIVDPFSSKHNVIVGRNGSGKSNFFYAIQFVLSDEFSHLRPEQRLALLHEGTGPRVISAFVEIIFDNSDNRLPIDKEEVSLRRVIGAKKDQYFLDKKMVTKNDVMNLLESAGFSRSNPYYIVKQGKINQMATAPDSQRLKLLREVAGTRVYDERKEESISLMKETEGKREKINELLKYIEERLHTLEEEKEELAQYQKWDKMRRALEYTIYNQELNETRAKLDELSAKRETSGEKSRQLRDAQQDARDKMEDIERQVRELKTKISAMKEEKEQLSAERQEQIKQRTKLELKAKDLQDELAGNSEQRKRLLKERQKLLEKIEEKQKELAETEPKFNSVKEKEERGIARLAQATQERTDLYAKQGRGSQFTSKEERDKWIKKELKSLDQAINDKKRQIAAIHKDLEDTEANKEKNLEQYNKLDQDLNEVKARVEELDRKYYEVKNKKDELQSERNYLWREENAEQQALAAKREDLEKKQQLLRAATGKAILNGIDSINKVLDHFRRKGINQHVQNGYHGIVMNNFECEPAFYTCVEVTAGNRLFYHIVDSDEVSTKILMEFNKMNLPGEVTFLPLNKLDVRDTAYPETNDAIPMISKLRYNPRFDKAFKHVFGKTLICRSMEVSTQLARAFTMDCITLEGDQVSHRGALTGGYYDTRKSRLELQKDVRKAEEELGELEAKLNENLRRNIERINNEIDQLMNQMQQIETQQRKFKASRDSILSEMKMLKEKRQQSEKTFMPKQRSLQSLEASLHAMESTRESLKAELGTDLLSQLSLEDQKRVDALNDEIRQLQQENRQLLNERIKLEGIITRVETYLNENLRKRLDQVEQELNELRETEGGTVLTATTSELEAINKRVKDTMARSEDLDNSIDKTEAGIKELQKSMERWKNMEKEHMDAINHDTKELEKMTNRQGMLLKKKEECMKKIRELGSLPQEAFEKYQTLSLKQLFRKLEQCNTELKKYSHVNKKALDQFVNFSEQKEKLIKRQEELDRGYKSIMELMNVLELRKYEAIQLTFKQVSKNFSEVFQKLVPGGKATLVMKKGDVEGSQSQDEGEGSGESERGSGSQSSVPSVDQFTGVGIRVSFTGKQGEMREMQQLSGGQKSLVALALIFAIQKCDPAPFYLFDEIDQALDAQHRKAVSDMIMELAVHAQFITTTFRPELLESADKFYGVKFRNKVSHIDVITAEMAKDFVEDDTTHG
UniProt O00161: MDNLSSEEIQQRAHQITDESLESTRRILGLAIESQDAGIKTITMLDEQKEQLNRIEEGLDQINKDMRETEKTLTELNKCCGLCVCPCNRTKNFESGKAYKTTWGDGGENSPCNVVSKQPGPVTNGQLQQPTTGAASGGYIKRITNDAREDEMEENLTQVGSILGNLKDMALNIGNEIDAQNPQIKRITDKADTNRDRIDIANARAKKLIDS
UniProt Q16637, whole entry, looked up: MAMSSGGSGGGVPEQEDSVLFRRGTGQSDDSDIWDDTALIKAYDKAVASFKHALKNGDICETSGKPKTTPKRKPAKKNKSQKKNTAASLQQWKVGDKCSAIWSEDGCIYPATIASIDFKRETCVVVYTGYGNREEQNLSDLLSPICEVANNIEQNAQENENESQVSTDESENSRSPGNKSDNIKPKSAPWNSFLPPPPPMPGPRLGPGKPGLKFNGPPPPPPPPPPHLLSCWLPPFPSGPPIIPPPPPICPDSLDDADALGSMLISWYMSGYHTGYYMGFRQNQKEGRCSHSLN
UniProt Q96KF7: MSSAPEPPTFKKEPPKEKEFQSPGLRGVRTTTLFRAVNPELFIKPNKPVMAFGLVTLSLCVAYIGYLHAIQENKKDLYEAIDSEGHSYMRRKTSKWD
UniProt P62314, whole entry, looked up: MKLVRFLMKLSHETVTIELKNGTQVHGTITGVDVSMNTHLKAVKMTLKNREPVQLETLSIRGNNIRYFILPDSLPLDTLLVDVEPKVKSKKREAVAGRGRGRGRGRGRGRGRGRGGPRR
UniProt O95347, whole entry, looked up: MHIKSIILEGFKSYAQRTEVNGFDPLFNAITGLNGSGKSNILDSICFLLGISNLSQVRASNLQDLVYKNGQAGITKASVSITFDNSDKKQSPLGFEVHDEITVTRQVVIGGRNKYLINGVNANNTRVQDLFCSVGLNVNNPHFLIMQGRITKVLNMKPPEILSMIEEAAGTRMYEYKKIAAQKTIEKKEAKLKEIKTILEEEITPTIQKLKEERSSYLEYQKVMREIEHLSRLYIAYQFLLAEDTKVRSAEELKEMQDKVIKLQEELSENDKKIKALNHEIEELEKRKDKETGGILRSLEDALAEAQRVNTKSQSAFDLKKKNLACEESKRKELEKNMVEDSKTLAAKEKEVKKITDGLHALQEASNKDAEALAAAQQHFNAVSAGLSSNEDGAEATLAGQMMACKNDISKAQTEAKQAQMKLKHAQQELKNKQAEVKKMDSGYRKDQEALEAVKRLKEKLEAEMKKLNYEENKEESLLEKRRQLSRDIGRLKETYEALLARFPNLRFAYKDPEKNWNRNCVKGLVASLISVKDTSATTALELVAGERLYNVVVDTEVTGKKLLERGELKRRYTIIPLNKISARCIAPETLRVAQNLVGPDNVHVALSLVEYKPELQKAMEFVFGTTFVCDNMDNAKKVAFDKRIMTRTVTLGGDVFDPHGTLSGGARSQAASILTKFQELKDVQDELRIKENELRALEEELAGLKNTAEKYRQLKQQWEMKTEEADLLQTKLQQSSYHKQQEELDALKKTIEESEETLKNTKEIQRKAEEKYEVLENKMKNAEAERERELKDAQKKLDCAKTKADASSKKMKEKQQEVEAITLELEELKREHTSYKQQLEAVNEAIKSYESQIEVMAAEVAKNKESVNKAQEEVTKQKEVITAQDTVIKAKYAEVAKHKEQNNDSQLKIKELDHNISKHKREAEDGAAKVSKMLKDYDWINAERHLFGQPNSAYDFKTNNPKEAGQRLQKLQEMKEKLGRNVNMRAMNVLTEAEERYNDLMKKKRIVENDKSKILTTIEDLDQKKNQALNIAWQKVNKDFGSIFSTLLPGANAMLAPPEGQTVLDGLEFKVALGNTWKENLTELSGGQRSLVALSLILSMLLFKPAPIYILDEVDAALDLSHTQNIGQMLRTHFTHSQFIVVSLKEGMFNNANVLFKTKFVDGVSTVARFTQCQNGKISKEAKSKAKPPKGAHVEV

sotrastaurin = compound: CN1CCN(c2nc(C3=C(c4c[nH]c5ccccc45)C(=O)NC3=O)c3ccccc3n2)CC1 [sotrastaurin]
How it was run: as §1

alvocidib = compound: CN1CC[C@H](c2c(O)cc(O)c3c(=O)cc(-c4ccccc4Cl)oc23)[C@H](O)C1 [alvocidib]
How it was run: as §1

Tubastatin A = compound: CN1CCc2c(c3ccccc3n2Cc2ccc(C(=O)NO)cc2)C1 [Tubastatin A]
How it was run: as §1

[1] = compound: CNC(=O)C1=CC=CC=C1NC2=NC(=NC=C2Cl)NC3=C(C=C(C=C3)N4CCOCC4)OC
How it was run: as §1

defactinib = compound: CNC(=O)c1ccc(Nc2ncc(C(F)(F)F)c(NCc3nccnc3N(C)S(C)(=O)=O)n2)cc1 [defactinib]
How it was run: as §1

rucaparib = compound: CNCc1ccc(-c2[nH]c3cc(F)cc4c3c2CCNC4=O)cc1 [rucaparib]
How it was run: as §1

[2] = compound: CNc1nc(-c2ccc3c(N)n[nH]c3c2)cc(N2C[C@@H](C(=O)NC3CCCCC3)CC[C@H]2C)n1
How it was run: as §1

encorafenib = compound: COC(=O)N[C@@H](C)CNc1nccc(-c2cn(C(C)C)nc2-c2cc(Cl)cc(NS(C)(=O)=O)c2F)n1 [encorafenib]
How it was run: as §1

[3] = compound: COC(=O)[C@H](CCSC)NC(=O)C1=C(C=C(C=C1)NC[C@H](CS)N)C2=CC=CC=C2
How it was run: as §1

[4] = compound: COC1=CC=C(C=C1)CN2C=CC3=C2C=C(C=C3)C(=O)NO
How it was run: as §1

filanesib = compound: CON(C)C(=O)N1N=C(c2cc(F)ccc2F)S[C@@]1(CCCN)c1ccccc1 [filanesib]
How it was run: as §1

zotarolimus = compound: CO[C@H]1C[C@@H]2CC[C@@H](C)[C@@](O)(O2)C(=O)C(=O)N2CCCC[C@H]2C(=O)O[C@H]([C@H](C)C[C@@H]2CC[C@H](n3cnnn3)[C@H](OC)C2)CC(=O)[C@H](C)/C=C(\C)[C@@H](O)[C@@H](OC)C(=O)[C@H](C)C[C@H](C)/C=C/C=C/C=C/1C [zotarolimus]
How it was run: as §1

idasanutlin = compound: COc1cc(C(=O)O)ccc1NC(=O)[C@@H]1N[C@@H](CC(C)(C)C)[C@](C#N)(c2ccc(Cl)cc2F)[C@H]1c1cccc(Cl)c1F [idasanutlin]
How it was run: as §1

alisertib = compound: COc1cc(Nc2ncc3c(n2)-c2ccc(Cl)cc2C(c2c(F)cccc2OC)=NC3)ccc1C(=O)O [alisertib]
How it was run: as §1

[5] = compound: COc1cc2nc(-c3cc(F)ccc3O)nc(N[C@@H]3CNC[C@H]3C(C)(C)O)c2cc1OC
How it was run: as §1

gefitinib = compound: COc1cc2ncnc(Nc3ccc(F)c(Cl)c3)c2cc1OCCCN1CCOCC1 [gefitinib]
How it was run: as §1

[6] = compound: COc1cccc2cc(-c3nc([C@H]4CC[C@H](C(=O)O)CC4)n4ncnc(N)c34)[nH]c12
How it was run: as §1

lapatinib = compound: CS(=O)(=O)CCNCc1ccc(-c2ccc3ncnc(Nc4ccc(OCc5cccc(F)c5)c(Cl)c4)c3c2)o1 [lapatinib]
How it was run: as §1

pictilisib = compound: CS(=O)(=O)N1CCN(Cc2cc3nc(-c4cccc5[nH]ncc45)nc(N4CCOCC4)c3s2)CC1 [pictilisib]
How it was run: as §1

Measured: log2 fold change

SMIM12 (UniProt Q96EX1)
inactive: saracatinib 0.006 | sotrastaurin 0.007 | alvocidib 0.016 | Tubastatin A 0.02 | [1] 0.023 | defactinib 0.113 | rucaparib 0.024 | [2] -0.013 | encorafenib -0.057 | [3] 0.074 | [4] -0.256 | filanesib -0.071 | zotarolimus 0.022 | idasanutlin 0.014 | alisertib -0.134 | [5] -0.029 | gefitinib -0.004 | [6] -0.165 | lapatinib -0.103 | pictilisib 0.004

SORBS1 isoform 12 (UniProt Q9BX66)
inactive: saracatinib 0.059 | sotrastaurin -0.099 | alvocidib -0.015 | Tubastatin A 0.008 | [1] 0.015 | defactinib -0.046 | rucaparib -0.07 | [2] -0.038 | encorafenib -0.03 | [3] 0.027 | [4] -0.053 | filanesib -0.033 | zotarolimus 0.006 | idasanutlin -0.007 | alisertib 0.016 | [5] 0.044 | gefitinib 0.027 | [6] -0.02 | lapatinib 0.037 | pictilisib 0.003

SMARCC1 (UniProt Q92922)
inactive: saracatinib -0.073 | sotrastaurin -0.12 | alvocidib -0.151 | Tubastatin A -0.048 | [1] -0.043 | defactinib -0.163 | rucaparib 0.06 | [2] 0.09 | encorafenib 0.085 | [3] -0.021 | [4] -0.171 | filanesib 0.066 | zotarolimus 0.077 | idasanutlin 0.038 | alisertib -0.045 | [5] -0.036 | gefitinib 0.069 | [6] -0.182 | lapatinib -0.038 | pictilisib -0.023

SMC6 isoform 2 (UniProt Q96SB8)
inactive: saracatinib -0.003 | sotrastaurin 0.036 | alvocidib -0.05 | Tubastatin A 0.042 | [1] 0.082 | defactinib 0.013 | rucaparib -0.005 | [2] -0.058 | encorafenib 0.021 | [3] -0.02 | [4] 0.012 | filanesib 0.059 | zotarolimus 0.022 | idasanutlin -0.02 | alisertib -0.074 | [5] 0.05 | gefitinib 0.031 | [6] 0.049 | lapatinib -0.023 | pictilisib 0.042

SMAP1 isoform 2 (UniProt Q8IYB5)
inactive: saracatinib 0.05 | sotrastaurin -0.025 | alvocidib -0.05 | Tubastatin A -0.014 | [1] 0.118 | defactinib -0.078 | rucaparib -0.038 | [2] -0.075 | encorafenib 0.025 | [3] 0.033 | [4] 0.19 | filanesib -0.046 | zotarolimus -0.032 | idasanutlin -0.029 | alisertib -0.062 | [5] 0.065 | gefitinib 0.02 | [6] -0.056 | lapatinib -0.058 | pictilisib -0.041

SNRNP200 (UniProt O75643)
inactive: saracatinib 0.009 | sotrastaurin -0.037 | alvocidib 0.078 | Tubastatin A -0.035 | [1] 0.066 | defactinib 0.121 | rucaparib 0.049 | [2] -0.081 | encorafenib 0.014 | [3] 0.007 | [4] -0.024 | filanesib 0.122 | zotarolimus -0.021 | idasanutlin 0.038 | alisertib -0.059 | [5] 0.091 | gefitinib -0.045 | [6] 0.002 | lapatinib 0.08 | pictilisib 0.073

SNRPE (UniProt P62304)
inactive: saracatinib 0.023 | sotrastaurin 0.084 | alvocidib 0.095 | Tubastatin A -0.02 | [1] 0.016 | defactinib 0.087 | rucaparib 0.018 | [2] -0.035 | encorafenib -0.003 | [3] -0.012 | [4] -0.09 | filanesib 0.038 | zotarolimus -0.045 | idasanutlin -0.085 | alisertib -0.228 | [5] 0.106 | gefitinib 0.003 | [6] 0.042 | lapatinib 0.052 | pictilisib -0.026

SNRPA (UniProt P09012)
inactive: saracatinib 0.047 | sotrastaurin 0.098 | alvocidib 0.194 | Tubastatin A -0.055 | [1] -0.01 | defactinib 0.239 | rucaparib 0.17 | [2] -0.073 | encorafenib -0.033 | [3] 0.06 | [4] -0.03 | filanesib 0.176 | zotarolimus -0.036 | idasanutlin 0.09 | alisertib -0.123 | [5] 0.029 | gefitinib -0.043 | [6] 0.011 | lapatinib 0.007 | pictilisib 0.05

SMS (UniProt P52788)
inactive: saracatinib 0.028 | sotrastaurin 0.024 | alvocidib -0.011 | Tubastatin A -0.033 | [1] -0.042 | defactinib 0.021 | rucaparib -0.072 | [2] -0.071 | encorafenib 0 | [3] 0.058 | [4] 0.049 | filanesib -0.038 | zotarolimus 0.002 | idasanutlin -0.041 | alisertib -0.039 | [5] 0.028 | gefitinib 0.005 | [6] 0.06 | lapatinib -0.03 | pictilisib 0.037

2 successive entries already listed:
SNRNP200 (UniProt O75643)
inactive: saracatinib 0.009 | sotrastaurin -0.037 | alvocidib 0.078 | Tubastatin A -0.035 | [1] 0.066 | defactinib 0.121 | rucaparib 0.049 | [2] -0.081 | encorafenib 0.014 | [3] 0.007 | [4] -0.024 | filanesib 0.122 | zotarolimus -0.021 | idasanutlin 0.038 | alisertib -0.059 | [5] 0.091 | gefitinib -0.045 | [6] 0.002 | lapatinib 0.08 | pictilisib 0.073

SNRPE (UniProt P62304)
inactive: saracatinib 0.023 | sotrastaurin 0.084 | alvocidib 0.095 | Tubastatin A -0.02 | [1] 0.016 | defactinib 0.087 | rucaparib 0.018 | [2] -0.035 | encorafenib -0.003 | [3] -0.012 | [4] -0.09 | filanesib 0.038 | zotarolimus -0.045 | idasanutlin -0.085 | alisertib -0.228 | [5] 0.106 | gefitinib 0.003 | [6] 0.042 | lapatinib 0.052 | pictilisib -0.026

The results go on:

SMC3 (UniProt Q9UQE7)
inactive: saracatinib 0.008 | sotrastaurin -0.047 | alvocidib -0.073 | Tubastatin A 0.007 | [1] -0.024 | defactinib -0.055 | rucaparib -0.069 | [2] -0.019 | encorafenib 0.032 | [3] 0.02 | [4] 0.056 | filanesib 0.025 | zotarolimus 0.007 | idasanutlin -0.011 | alisertib -0.025 | [5] 0.009 | gefitinib 0.002 | [6] 0.025 | lapatinib -0.009 | pictilisib 0.024

SNAP23 (UniProt O00161)
inactive: saracatinib -0.007 | sotrastaurin 0.053 | alvocidib 0.053 | Tubastatin A -0.016 | [1] -0.003 | defactinib 0.007 | rucaparib -0.036 | [2] 0.005 | encorafenib 0.017 | [3] 0.026 | [4] -0.075 | filanesib 0.008 | zotarolimus -0.044 | idasanutlin -0.001 | alisertib -0.088 | [5] 0.006 | gefitinib 0.001 | [6] 0.012 | lapatinib -0.003 | pictilisib 0.039

SMN1 (UniProt Q16637)
inactive: saracatinib 0.023 | sotrastaurin 0.121 | alvocidib 0.113 | Tubastatin A 0.018 | [1] 0.046 | defactinib 0.056 | rucaparib 0.233 | [2] -0.039 | encorafenib 0.121 | [3] -0.032 | [4] -0.006 | filanesib 0.284 | zotarolimus 0.059 | idasanutlin 0.208 | alisertib -0.168 | [5] -0.037 | gefitinib -0.01 | [6] -0.061 | lapatinib 0.029 | pictilisib -0.087

SMIM8 (UniProt Q96KF7)
inactive: saracatinib 0.026 | sotrastaurin 0.043 | alvocidib -0.103 | Tubastatin A -0.002 | [1] -0.032 | defactinib -0.019 | rucaparib 0.064 | [2] 0.029 | encorafenib 0.041 | [3] -0.061 | [4] -0.044 | filanesib -0.09 | zotarolimus 0.037 | idasanutlin -0.11 | alisertib -0.097 | [5] 0.013 | gefitinib 0.024 | [6] 0.088 | lapatinib -0.035 | pictilisib 0.056

SLC9A3R2 (UniProt Q15599)
inactive: saracatinib 0.022 | sotrastaurin 0.017 | alvocidib 0.01 | Tubastatin A 0.014 | [1] -0.05 | defactinib -0.007 | rucaparib 0.036 | [2] -0.027 | encorafenib 0.013 | [3] 0.038 | [4] -0.03 | filanesib 0.035 | zotarolimus -0.036 | idasanutlin 0.023 | alisertib -0.097 | [5] -0.06 | gefitinib 0.022 | [6] 0.02 | lapatinib 0.059 | pictilisib -0.047

SNRPD1 (UniProt P62314)
inactive: saracatinib 0.027 | sotrastaurin 0.045 | alvocidib 0.111 | Tubastatin A -0.027 | [1] 0.009 | defactinib 0.166 | rucaparib 0.044 | [2] -0.115 | encorafenib -0.035 | [3] 0.042 | [4] -0.074 | filanesib 0.151 | zotarolimus -0.062 | idasanutlin 0.08 | alisertib -0.136 | [5] 0.084 | gefitinib -0.039 | [6] 0.037 | lapatinib -0.027 | pictilisib 0.062

SMC2 (UniProt O95347)
inactive: saracatinib -0.02 | sotrastaurin -0.056 | alvocidib -0.016 | Tubastatin A 0.01 | [1] 0.042 | defactinib -0.04 | rucaparib 0.058 | [2] 0.024 | encorafenib 0.081 | [3] -0.012 | [4] 0.022 | filanesib 0.015 | zotarolimus 0.016 | idasanutlin -0.024 | alisertib -0.005 | [5] 0.085 | gefitinib 0.019 | [6] -0.06 | lapatinib 0.019 | pictilisib 0.045

From the supplement of paper PMC10849652
